Results are given in words; binding and its absence hold for the method and conditions named. Binding seen in cells or lysates may run through a third protein. Some binding calls cover weakened binding; strength is not graded here.
Legend:
Foxp1-His = Foxp1-His (UniProt P58462); test: co-IP; in vitro Co-IP: total lysates of HEK293T cells co-transfected with Foxp1-His, Prdm16-Flag and C/ebpβ-Myc plasmids, incubated overnight at 4 °C with antibodies or normal IgG as control, Protein A/G PLUS-Agarose, western blotting
[1] = target: Foxp1 (mouse (endogenous in SVF cells from BAT)) (UniProt P58462); test: co-IP; in vivo Co-IP: total lysates of SVF cells cultured from wild-type mice, incubated overnight at 4 °C with antibodies or normal IgG as control, Protein A/G PLUS-Agarose, western blotting; endogenous proteins

The chains behind the UniProt entries cited, without tags or fusion partners.
UniProt P58462: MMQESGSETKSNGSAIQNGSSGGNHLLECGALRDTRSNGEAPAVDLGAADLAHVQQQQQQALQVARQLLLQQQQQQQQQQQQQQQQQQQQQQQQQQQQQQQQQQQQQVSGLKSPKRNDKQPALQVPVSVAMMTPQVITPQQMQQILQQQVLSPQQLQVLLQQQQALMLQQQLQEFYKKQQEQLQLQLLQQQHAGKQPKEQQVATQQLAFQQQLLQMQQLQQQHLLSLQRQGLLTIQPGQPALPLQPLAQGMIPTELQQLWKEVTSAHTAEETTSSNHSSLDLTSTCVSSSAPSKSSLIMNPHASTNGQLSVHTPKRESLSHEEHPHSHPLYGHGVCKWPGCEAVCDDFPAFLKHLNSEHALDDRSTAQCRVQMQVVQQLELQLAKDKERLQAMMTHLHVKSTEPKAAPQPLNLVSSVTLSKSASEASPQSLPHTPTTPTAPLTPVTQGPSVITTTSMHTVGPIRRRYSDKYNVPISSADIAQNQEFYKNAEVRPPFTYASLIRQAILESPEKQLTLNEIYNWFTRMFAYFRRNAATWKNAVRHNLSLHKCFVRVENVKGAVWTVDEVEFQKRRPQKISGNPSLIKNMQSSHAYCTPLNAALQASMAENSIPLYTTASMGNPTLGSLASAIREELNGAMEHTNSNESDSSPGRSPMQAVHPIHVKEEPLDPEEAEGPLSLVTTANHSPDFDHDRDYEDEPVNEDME
UniProt P28033: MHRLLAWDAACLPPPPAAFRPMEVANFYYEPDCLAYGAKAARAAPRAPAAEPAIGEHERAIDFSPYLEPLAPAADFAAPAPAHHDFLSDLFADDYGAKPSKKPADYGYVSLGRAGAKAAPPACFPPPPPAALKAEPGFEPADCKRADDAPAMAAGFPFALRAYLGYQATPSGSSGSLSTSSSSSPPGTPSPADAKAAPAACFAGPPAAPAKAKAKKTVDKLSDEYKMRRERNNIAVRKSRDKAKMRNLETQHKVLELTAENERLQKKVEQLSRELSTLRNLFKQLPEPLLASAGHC
UniProt A2A935: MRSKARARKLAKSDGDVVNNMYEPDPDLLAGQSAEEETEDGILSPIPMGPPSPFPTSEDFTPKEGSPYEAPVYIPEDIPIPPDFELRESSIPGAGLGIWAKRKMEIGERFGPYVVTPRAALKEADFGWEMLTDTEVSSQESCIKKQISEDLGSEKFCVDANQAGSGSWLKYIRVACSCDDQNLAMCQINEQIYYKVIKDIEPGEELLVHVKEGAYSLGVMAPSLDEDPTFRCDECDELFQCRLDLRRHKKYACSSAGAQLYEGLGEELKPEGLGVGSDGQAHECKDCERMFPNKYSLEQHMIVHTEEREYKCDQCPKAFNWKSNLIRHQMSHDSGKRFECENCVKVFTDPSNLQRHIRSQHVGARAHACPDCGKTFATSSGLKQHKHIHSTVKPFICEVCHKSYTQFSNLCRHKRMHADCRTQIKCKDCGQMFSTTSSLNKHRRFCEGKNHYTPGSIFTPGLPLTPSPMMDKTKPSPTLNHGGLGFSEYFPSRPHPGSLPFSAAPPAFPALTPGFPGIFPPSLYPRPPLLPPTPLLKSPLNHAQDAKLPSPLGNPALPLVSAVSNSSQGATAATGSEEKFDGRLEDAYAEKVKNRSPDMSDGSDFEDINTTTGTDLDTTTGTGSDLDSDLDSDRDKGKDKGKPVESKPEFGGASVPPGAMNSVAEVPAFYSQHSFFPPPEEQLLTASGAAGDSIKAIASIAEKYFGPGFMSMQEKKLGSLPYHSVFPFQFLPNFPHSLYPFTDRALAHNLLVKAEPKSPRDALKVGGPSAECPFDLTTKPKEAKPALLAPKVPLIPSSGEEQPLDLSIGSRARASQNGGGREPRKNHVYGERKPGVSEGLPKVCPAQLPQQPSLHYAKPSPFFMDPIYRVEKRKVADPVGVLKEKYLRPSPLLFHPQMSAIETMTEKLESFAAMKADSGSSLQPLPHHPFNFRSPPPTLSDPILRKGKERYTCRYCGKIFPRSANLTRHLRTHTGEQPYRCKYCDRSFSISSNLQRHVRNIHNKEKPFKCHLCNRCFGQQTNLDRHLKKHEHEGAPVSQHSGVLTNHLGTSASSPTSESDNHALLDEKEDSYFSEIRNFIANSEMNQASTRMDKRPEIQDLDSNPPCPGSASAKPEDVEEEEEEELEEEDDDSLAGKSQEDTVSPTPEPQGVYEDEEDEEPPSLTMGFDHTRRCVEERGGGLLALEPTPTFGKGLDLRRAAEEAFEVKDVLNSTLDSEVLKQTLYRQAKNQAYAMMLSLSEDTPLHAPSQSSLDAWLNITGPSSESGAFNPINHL

Row | Substance | binding (Foxp1-His) | binding [1]
1 | C/ebpβ-Myc (from UniProt P28033 1-296) | binds | –
2 | Prdm16 (from UniProt A2A935 1-1275) | – | binds
3 | C/ebpβ (from UniProt P28033 1-296) | – | binds
4 | Prdm16-Flag (from UniProt A2A935 1-1275) | binds | –

Source: PMC6838312
